Results deposited as PubChem BioAssay AID1159578 (Peter MacCallum Cancer Centre, 2015)
Shown is a random part of about 18,000 reagents. About 1,030 of them (5.7%) were called active. 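Inactive calls also include pools with fewer than 3300 nuclei, whose migration was not assessed.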 Raw values are not corrected between plates. A number with no mark means an inactive call. Reagents against one gene are numbered here. Further read-outs or replicates are left out here.

Assay: 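siRNA pools altering how lymphatic endothelial cells close a scratch wound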 (primary screen)
Cell system: human lymphatic endothelial cells
Reagent: siRNA pool against human genes, 40 nM
Timing: 48 h after transfection
Detection: 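High-content imaging of dye-stained cells in a scratch assay measures filled wound area and nuclei per well; duplicate means given as ratio to mock and robust z-score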
Reading the numbers: migration robust z-score: higher = faster migration into the scratch; nuclei per well: higher = more cells in the well
Rule for the call: 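Migration changed when robust z exceeds 2 or falls below -2 and mean nuclei number is at least 3300; otherwise not called changed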
Calls: active = migration changed; inactive = no migration change, or too few cells

gene symbol,pool no.,migration robust z-score,"nuclei per well, duplicate mean"
ST18 (GeneID 9705),1,-0.18,6226
BLTP2 (GeneID 9703),1,-0.7,4756
STUB1 (GeneID 10273),1,-0.54,5210
CREG2 (GeneID 200407),1,0.2,4648
ARSL (GeneID 415),1,1.35,5136
MNS1 (GeneID 55329),1,-0.62,5994
GPR78 (GeneID 27201),1,0,6753
ABI3BP (GeneID 25890),1,1.96,6804
RAB6B (GeneID 51560),1,-0.34,5636
USH1C (GeneID 10083),1,-0.68,4822
OARD1 (GeneID 221443),1,-1.77,5404
RHD (GeneID 6007),1,0.55,5420
FBXO44 (GeneID 93611),1,-2.39 (active),5724
CDHR4 (GeneID 389118),1,-0.51,5430
ITGAE (GeneID 3682),1,0.05,6600
LRRC55 (GeneID 219527),1,-1.34,5001
DCAF12L2 (GeneID 340578),1,-0.91,6896
ZNF222 (GeneID 7673),1,0.4,6418
MPHOSPH9 (GeneID 10198),1,-0.98,7007
BPIFB3 (GeneID 359710),1,-0.36,5363
SFTA2 (GeneID 389376),1,1.06,6459
ALG10B (GeneID 144245),1,0.33,6476
H2AB2 (GeneID 474381),1,0.52,5980
PYGO2 (GeneID 90780),1,0.17,6371
ACADM (GeneID 34),1,-1.53,5502
SLC25A6 (GeneID 293),1,-0.08,5542
PGBD4 (GeneID 161779),1,-0.22,6581
AK1 (GeneID 203),1,0.05,4600
PPP2R1B (GeneID 5519),1,-0.31,4866
GTSF1L (GeneID 149699),1,-0.09,6418
NKX6-1 (GeneID 4825),1,0.83,5618
ZNF559 (GeneID 84527),1,3.19 (active),6508
KRTAP20-1 (GeneID 337975),1,-1.04,5392
ESS2 (GeneID 8220),1,-0.18,3426
DNAH1 (GeneID 25981),1,-1.17,5568
TAF7 (GeneID 6879),1,1.27,5190
TRAF1 (GeneID 7185),1,0.85,4740
NEK2 (GeneID 4751),1,-0.6,6152
KRTDAP (GeneID 388533),1,-0.85,4202
CPSF3 (GeneID 51692),1,-0.75,5628

A stretch taken from the entries so far:
gene symbol,pool no.,migration robust z-score,"nuclei per well, duplicate mean"
SLC25A6 (GeneID 293),1,-0.08,5542
PGBD4 (GeneID 161779),1,-0.22,6581
AK1 (GeneID 203),1,0.05,4600
PPP2R1B (GeneID 5519),1,-0.31,4866
GTSF1L (GeneID 149699),1,-0.09,6418

Further records follow.
gene symbol,pool no.,migration robust z-score,"nuclei per well, duplicate mean"
KCTD11 (GeneID 147040),1,-0.78,4611
BSG (GeneID 682),1,0.04,5119
RNF157 (GeneID 114804),1,0.07,3346
AKAP6 (GeneID 9472),1,-0.05,5490
S100A7A (GeneID 338324),1,-0.56,4750
ARRDC1 (GeneID 92714),1,-1.34,6547
MRGPRG (GeneID 386746),1,-0.02,5830
MIA2 (GeneID 4253),1,-0.12,6522
MIA2 (GeneID 4253),2,2.36 (active),7109
PLIN1 (GeneID 5346),1,-0.13,5740
BNIP1 (GeneID 662),1,-2.6 (active),4278
LYRM2 (GeneID 57226),1,-0.92,4902
RPL35A (GeneID 6165),1,-2.38 (active),3970
OR2T1 (GeneID 26696),1,0.28,5448
YWHAZ (GeneID 7534),1,0.78,6012
FAM216A (GeneID 29902),1,-0.06,5186
SI (GeneID 6476),1,-0.29,5206
FBXW2 (GeneID 26190),1,-0.34,5874
ARHGAP10 (GeneID 79658),1,0.42,5784
RASA4 (GeneID 10156),1,1.5,6570
SLC6A2 (GeneID 6530),1,-1.32,3098
SKOR1 (GeneID 390598),1,0.42,6280
PCMTD1 (GeneID 115294),1,0.56,6077
TCEA3 (GeneID 6920),1,-1.14,4395
STX6 (GeneID 10228),1,-0.9,4277
PRSS55 (GeneID 203074),1,-1.72,6782
PRPF4 (GeneID 9128),1,-0.9,4638
C4orf33 (GeneID 132321),1,-1.83,3015
XAB2 (GeneID 56949),1,-2.28 (active),4412
KLF5 (GeneID 688),1,0.18,7148
QRFPR (GeneID 84109),1,0.24,6314
ZPLD1 (GeneID 131368),1,-0.37,7726
MSH5 (GeneID 4439),1,0.36,5534
